PMC12061245
These are yes or no findings as the source states them, for the method shown. Binding seen in cells or lysates may run through a third protein.

Chains of the proteins cited; added tags and fusions are not shown.
UniProt P10417: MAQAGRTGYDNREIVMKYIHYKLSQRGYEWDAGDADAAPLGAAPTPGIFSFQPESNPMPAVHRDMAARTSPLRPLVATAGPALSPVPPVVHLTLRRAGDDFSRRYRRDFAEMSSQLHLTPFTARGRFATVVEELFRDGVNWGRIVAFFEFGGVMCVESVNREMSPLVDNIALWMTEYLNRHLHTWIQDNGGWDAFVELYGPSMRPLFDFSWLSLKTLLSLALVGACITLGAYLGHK

Molecular target: T1, mitochondrial carrier homolog 2 (MTCH2) (mouse (endogenous in 3T3-L1)) (UniProt Q791V5)
T1 sequence: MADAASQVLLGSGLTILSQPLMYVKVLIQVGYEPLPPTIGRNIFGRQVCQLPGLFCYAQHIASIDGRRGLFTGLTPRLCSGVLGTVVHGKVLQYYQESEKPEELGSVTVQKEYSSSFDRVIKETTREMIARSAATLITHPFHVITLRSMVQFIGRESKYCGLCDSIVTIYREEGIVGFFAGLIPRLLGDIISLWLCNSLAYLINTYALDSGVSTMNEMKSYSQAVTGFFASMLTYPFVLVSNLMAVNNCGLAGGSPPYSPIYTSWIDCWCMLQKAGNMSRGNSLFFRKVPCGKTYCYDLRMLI
Assay: co-IP; 3T3L1 cell lysate; 1 mg cellular proteins with 1 µg primary antibodies at 4 °C overnight, Protein A/G magnetic beads 2 h at 4 °C, Western blot; which protein was precipitated is not told

Bcl-2 (from UniProt P10417 1-236)
binding: no binding
